In test [1] the target is T1, Tyrosine-protein kinase JAK3 (Homo sapiens, UniProt P52333).
T1 sequence (P52333 whole entry): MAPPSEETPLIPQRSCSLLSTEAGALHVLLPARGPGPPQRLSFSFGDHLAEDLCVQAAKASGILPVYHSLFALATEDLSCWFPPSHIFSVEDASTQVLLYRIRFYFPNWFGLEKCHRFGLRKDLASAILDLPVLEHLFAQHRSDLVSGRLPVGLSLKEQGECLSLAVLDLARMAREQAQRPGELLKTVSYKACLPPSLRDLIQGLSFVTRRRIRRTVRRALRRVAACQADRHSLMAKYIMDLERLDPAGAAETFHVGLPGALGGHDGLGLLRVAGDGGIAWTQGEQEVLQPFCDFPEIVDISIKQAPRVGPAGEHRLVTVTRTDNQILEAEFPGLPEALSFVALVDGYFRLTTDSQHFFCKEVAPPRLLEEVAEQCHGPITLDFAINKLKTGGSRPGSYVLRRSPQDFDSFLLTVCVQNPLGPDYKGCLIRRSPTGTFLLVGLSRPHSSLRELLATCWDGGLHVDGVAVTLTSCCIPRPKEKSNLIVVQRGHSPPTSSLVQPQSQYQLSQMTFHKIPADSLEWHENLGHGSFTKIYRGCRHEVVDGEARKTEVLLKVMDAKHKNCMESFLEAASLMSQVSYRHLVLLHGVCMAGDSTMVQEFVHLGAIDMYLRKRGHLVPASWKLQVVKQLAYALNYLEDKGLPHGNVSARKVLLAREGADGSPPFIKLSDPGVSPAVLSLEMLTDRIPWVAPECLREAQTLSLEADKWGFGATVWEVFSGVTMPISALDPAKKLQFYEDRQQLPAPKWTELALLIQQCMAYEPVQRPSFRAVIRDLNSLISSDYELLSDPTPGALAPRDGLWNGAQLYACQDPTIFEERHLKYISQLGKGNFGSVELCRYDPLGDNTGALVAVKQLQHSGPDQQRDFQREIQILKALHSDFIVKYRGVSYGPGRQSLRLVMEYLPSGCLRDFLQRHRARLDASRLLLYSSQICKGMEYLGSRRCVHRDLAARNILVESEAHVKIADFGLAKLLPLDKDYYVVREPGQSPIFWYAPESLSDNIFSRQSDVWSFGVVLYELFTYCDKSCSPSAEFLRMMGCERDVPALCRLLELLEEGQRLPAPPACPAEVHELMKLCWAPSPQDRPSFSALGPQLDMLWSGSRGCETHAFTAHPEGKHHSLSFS

The chains behind the UniProt entries cited, without tags or fusion partners. Where a name states a change or a piece, a line headed by the entry shows the natural chain unless it says otherwise.
UniProt P23458: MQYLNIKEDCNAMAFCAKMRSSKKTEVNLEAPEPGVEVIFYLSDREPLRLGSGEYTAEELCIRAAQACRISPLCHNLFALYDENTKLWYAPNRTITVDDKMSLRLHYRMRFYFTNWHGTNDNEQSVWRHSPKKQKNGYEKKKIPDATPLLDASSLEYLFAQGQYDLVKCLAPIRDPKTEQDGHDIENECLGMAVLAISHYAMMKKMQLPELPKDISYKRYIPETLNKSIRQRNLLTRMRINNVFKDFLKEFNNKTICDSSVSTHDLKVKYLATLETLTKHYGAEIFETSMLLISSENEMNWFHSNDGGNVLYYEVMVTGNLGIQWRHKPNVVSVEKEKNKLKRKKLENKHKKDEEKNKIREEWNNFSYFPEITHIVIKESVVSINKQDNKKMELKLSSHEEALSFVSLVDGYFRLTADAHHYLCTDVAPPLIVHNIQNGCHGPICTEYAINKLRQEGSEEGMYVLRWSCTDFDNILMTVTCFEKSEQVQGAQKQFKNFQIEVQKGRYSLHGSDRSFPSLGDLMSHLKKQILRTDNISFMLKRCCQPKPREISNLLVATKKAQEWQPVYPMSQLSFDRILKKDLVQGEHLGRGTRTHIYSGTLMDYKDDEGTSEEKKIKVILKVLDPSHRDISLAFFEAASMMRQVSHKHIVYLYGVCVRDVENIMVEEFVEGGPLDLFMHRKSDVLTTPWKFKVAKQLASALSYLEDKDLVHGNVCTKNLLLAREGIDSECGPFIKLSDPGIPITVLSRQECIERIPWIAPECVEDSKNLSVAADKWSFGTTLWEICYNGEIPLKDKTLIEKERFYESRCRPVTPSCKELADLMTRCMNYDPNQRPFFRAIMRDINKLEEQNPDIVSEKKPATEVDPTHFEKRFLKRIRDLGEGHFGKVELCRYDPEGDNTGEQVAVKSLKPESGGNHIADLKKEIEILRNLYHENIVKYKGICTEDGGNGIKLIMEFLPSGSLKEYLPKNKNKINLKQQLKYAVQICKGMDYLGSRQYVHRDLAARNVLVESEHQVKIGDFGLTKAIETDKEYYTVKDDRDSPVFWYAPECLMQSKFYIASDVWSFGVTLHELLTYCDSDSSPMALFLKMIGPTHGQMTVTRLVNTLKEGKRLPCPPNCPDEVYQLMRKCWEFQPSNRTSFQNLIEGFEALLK

A further test addresses JAK3/JAK1 (Homo sapiens, UniProt P23458+P52333). It counts as protein-complex assay, Blood.
Test [2] addresses T1, Tyrosine-protein kinase JAK3. The source holds these as a separate data set.

SMILES strings stand for the structures. pIC50, pKi: −log10 of the molar value.

Regarding `CC[C@@](C)(Nc1ccnc(-c2c[nH]c3ncccc23)n1)C(=O)NCC(F)(F)F` [DECERNOTINIB], the pIC50 in test [1] was 7.13; against JAK3/JAK1 it was 6.03; in test [2], 8.92. Also, the pKi in test [1] was 8.60.

A word on the pIC50: it is the IC50 on a negative log10 scale, so that one unit is a factor of ten. The pKi is the negative decadic logarithm of the Ki, by convention in mol/L. Higher therefore signals a small Ki.

The values above are taken from ChEMBL document CHEMBL3297690, “Discovery and development of Janus kinase (JAK) inhibitors for inflammatory diseases” (J Med Chem, 2014).
